{
  "source": "patent US8232063B2",
  "about": "“H+-gated ion channel” (University of Utah Research Foundation, priority 2004, dated 2012)",
  "tested_on": "PBO-5/PBO-8 receptors",
  "test": "Two-electrode voltage clamp of Xenopus oocytes coinjected with PBO-5 and PBO-8 cRNA",
  "assay_type": "cell-based, C. elegans",
  "procedure": "Capped RNA was prepared using the T7 mMessage mMachine kit (Ambion). Xenopus oocytes were collected and coinjected with 25 ng each of PBO-5 and PBO-8 cRNA and two-electrode voltage clamp recordings were performed 3-5 days post-injection. The standard bath solution for dose-response and control I-V experiments was Ringer's (in mM): 115 NaCl, 1.8 […], 10 Bis-Tris Propane (pH 7.4 Acetic acid). For dose-response experiments, each oocyte was subjected to a 5 second application of test pH (7.0 - 5.0) with 2 minutes of pH 7.4 wash between test applications.\nIon selectivity experiments: All points are responses to test pulse applications of pH 6.8 for 5 seconds. The reversal potential of PBO-5/PBO-8 expressing oocytes were first determined in standard Ringer's (in mM): 115 NaCl, 1.0 CaCl2, 10 Bis-Tris Propane (pH 7.4, acetic acid). For chloride permeability a simplified solution was used, chloride-free (in mM): 115 Na^+ gluconate, 1.0 CaCl2, 10 Bis-Tris Propane (pH 7.4 acetic acid). For Na^+ permeability a simplified solution was used, Na^+ free (in mM): 115 mM N-methyl D-glucamine (NMDG), 1.8 CaCl2, 10 Bis-Tris Propane (pH 7.4 acetic acid)). All solutions were brought to pH by addition of NaOH or acetic acid. To determine K^+ permeability, I-V experiments were performed in K^+ Ringer's (in mM): 115 K^+-gluconate, 1.0 CaCl2, 10 Bis-Tris Propane (pH=7.4 acetic acid). To determine Ca^2+ permeability extracellular Na^+ was lowered to 90 mM and extracellular CaCl2 was increased to 3 mM and 10 mM, compare to 1 mM Ca^2+ control. To better resolve calcium permeability, the Na^+ free solution was used except CaCl2 was increased ten-fold, 18 mM CaCl2 (in mM): 115 NMDG, 18 CaCl2, 10 Bis-Tris Propane, (pH 7.4 acetic acid). Osmolarity was measured for each solution and was maintained at 240 mOsm by the addition of sucrose. All recordings were done at room temperature. We used 3M KCl filled electrodes with a resistance between 1-3 MΩ. […]",
  "note": "Several values for one entry are separate records, joined by “and”; a condition that tells them apart may be missing. Equal entries are not always repeated.",
  "data": [
    {"compound": "[1H+]", "note": "[H^+]", "values": [
      {"measurement": "Hill coefficient", "setting": "1 mM Ca2+ control conditions", "result": 6},
      {"measurement": "Hill coefficient", "setting": "10 mM Ca2+ test conditions", "result": 4},
      {"measurement": "Hill coefficient", "setting": "voltage-clamped at -60 mV, test pH 5 seconds, standard Ringer's, n=18", "result": "9+0.66 and 9±0.66"}
    ]}
  ]
}
